In paper PMC7819943, “Rice protein-binding microarrays: a tool to detect cis-acting elements near promoter regions in rice”:
Some of the results follow.

What follows are sequences tested against T1, OsSMF1 (Oryza sativa, UniProt Q6ZLB0 1-436) (assay: protein-binding microarray (RPBM); PBS, 2% BSA, 51.3 ng/ul salmon testes DNA, 50 uM zinc acetate, 200 nM TF, 25 C, 1 h; high values mean tight binding). Settings: protein: recombinant; tags: N-terminal polyhistidine and DsRed monomer fusion (pET32a); chain copies: 2; label: CyDye5-dUTP incorporated in the synthesized complementary strand; 3' TTTTT single-stranded linker to array surface; dsDNA, one strand shown.
T1 sequence: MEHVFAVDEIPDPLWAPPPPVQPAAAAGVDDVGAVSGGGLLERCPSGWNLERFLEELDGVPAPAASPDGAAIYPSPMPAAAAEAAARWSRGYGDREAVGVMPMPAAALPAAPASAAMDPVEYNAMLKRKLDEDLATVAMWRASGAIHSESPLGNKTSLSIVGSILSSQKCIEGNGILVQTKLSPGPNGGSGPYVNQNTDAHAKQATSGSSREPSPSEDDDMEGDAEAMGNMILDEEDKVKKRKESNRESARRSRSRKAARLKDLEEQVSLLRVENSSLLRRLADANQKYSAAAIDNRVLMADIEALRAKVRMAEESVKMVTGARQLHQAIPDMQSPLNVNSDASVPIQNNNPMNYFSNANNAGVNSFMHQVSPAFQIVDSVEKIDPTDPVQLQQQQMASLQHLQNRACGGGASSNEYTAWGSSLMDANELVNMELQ
Outline: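 Using Ni–NTA, transcription factors fused N-terminally to polyhistidine and DsRed were purified after expression in E. coli BL21-CodonPlus. These were incubated at 200 nM with a blocked, double-stranded custom Agilent array for 1 h at 25 °C in a buffer containing 50 µM zinc acetate, and the array was washed. The binding signal is per-feature fluorescence intensity (arbitrary units) on an Axon 4000B scanner.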
In the case of “AGAATACGTATTATGCTCAAATACGCCTTCGCGTGGCGGTCGGAGTCACCTAGTGCAG”, the binding signal is reported as 3320 fluorescence intensity (a.u.). With “GCGCAAAGCAGCCGCGGTCAGCAGCATCACACACTGCAGCCGGAGTCACCTAGTGCAG” the binding signal was 4880 fluorescence intensity (a.u.). In the case of “AAACAAACTCTGTGTTGTTGGTGATTGTATTCTCTCCTTGCGGAGTCACCTAGTGCAG”, the binding signal is reported as 3260 fluorescence intensity (a.u.). In the case of “TATGGTTGGGGATGATTTTGTATCTTAGATGACAAGTTGACGGAGTCACCTAGTGCAG”, the binding signal is reported as 3320 fluorescence intensity (a.u.). For “AAATTCTTACTGATGTGTCATGCTACAATCGAATCGTGAACGGAGTCACCTAGTGCAG”, the binding signal was 5230 fluorescence intensity (a.u.). In the case of “CAGCAGCATGACCCGTTCCTGGCCGCCTACGTGGCGTGCACGGAGTCACCTAGTGCAG”, the binding signal is reported as 19400 fluorescence intensity (a.u.). “GAAAAGAGAGTGTGCACGCGGACGTGGCATCTGGCATGTGCGGAGTCACCTAGTGCAG” was tested, and the binding signal was 10500 fluorescence intensity (a.u.). For “ATGTTGTATTATATAGAAATGACATGTCCTGGATGCATTCCGGAGTCACCTAGTGCAG”, the binding signal was 4310 fluorescence intensity (a.u.). In the case of “AAGTTGAAAATGTTTTCGCTGATATTTTGATACGTTGTTCCGGAGTCACCTAGTGCAG”, the binding signal is reported as 6640 fluorescence intensity (a.u.). With “AAATACATCCAAGAACACAATATATTCCAATATTTTGTCACGGAGTCACCTAGTGCAG” the binding signal was 34500 fluorescence intensity (a.u.). With “TTCTAGCGTGTCTTGGCTGGCGACCGTTACAGTCAGCCAGCGGAGTCACCTAGTGCAG” the binding signal was 3600 fluorescence intensity (a.u.). In the case of “CTTGGCAATTGGGCTCTTGAAAACCTGGTGCACAGTCTCACGGAGTCACCTAGTGCAG”, the binding signal is reported as 26600 fluorescence intensity (a.u.). With “GGGTCGTCGTGAAGTTGGCGTTGGTGGTCATGGACGTGGACGGAGTCACCTAGTGCAG” the binding signal was 3420 fluorescence intensity (a.u.). For “CATTGGCTGCCTCTTCTTTCTCTGATGGACTCTAAACCCTCGGAGTCACCTAGTGCAG”, the binding signal was 24800 fluorescence intensity (a.u.). For “CTACCTTTTGAATTGTTAGAGATGAGTCATCTGGAATAAGCGGAGTCACCTAGTGCAG”, the binding signal was 5090 fluorescence intensity (a.u.). With “CTTGCTCGATCGTGGTCCATGAACTGATCATCAGAAGGTACGGAGTCACCTAGTGCAG” the binding signal was 24700 fluorescence intensity (a.u.). “CTGGTGCGCGAGCGCGACCCCGTCTGCGCCGGCGGTGGAGCGGAGTCACCTAGTGCAG” was tested, and the binding signal was 3500 fluorescence intensity (a.u.). With “GGTACAGTACGTATGACTAGGTACAAGTAGTTTAGGTTGACGGAGTCACCTAGTGCAG” the binding signal was 3950 fluorescence intensity (a.u.). For “TAGCAGTTTCGGTAGGTTGTGTGGCGTGGTCACCTTTGCTCGGAGTCACCTAGTGCAG”, the binding signal was 3790 fluorescence intensity (a.u.). With “GAATCTACTGGGCATTTCGTCAAACAGCTCATCTGCGCCCCGGAGTCACCTAGTGCAG” the binding signal was 3590 fluorescence intensity (a.u.). For “CGCCTCGTCCATGTCTGGATGTCGCTGTCGTCACGTCTCCCGGAGTCACCTAGTGCAG”, the binding signal was 4400 fluorescence intensity (a.u.). For “CCTATTCCTTGTCACCACTGCCCAGCCCATACACGGCCCACGGAGTCACCTAGTGCAG”, the binding signal was 3870 fluorescence intensity (a.u.). In the case of “TCCCTCCTTGCTAACTAGGATGTCACGTCAGGACTTGAACCGGAGTCACCTAGTGCAG”, the binding signal is reported as 3570 fluorescence intensity (a.u.). In the case of “TCTCCACGTATCCCCAGTTGCCGACGTGGACGGTCAGATCCGGAGTCACCTAGTGCAG”, the binding signal is reported as 17800 fluorescence intensity (a.u.). For “ATTACATTGTCTCAACAATTTCTCCACATACTCATGTCAACGGAGTCACCTAGTGCAG”, the binding signal was 3520 fluorescence intensity (a.u.). With “TGTTAACCAAATAGCTCTAGATACCGCGGAATAGACGTGACGGAGTCACCTAGTGCAG” the binding signal was 3290 fluorescence intensity (a.u.). With “TATATGAACAACAAGGATATATATCTTGCTGATGACAGTGCGGAGTCACCTAGTGCAG” the binding signal was 3720 fluorescence intensity (a.u.). “TGGGCTGAAGTTGTTTGTAGCGCATCTGTCATCTGTCTCGCGGAGTCACCTAGTGCAG” was tested, and the binding signal was 4510 fluorescence intensity (a.u.). “TTCTTGACTTCTTGGTGAGGAAACCTCATTTCGGCTGAAGCGGAGTCACCTAGTGCAG” was tested, and the binding signal was 28800 fluorescence intensity (a.u.). For “GATAGTTTCACATCACTGACCATGAACTTTTCTGACACAGCGGAGTCACCTAGTGCAG”, the binding signal was 3490 fluorescence intensity (a.u.). With “AATCACTTGAAGTTTGACATTCCACCTCATAAGTTATTTTCGGAGTCACCTAGTGCAG” the binding signal was 4460 fluorescence intensity (a.u.). With “TGTAAAACTAAGCTTTGACAACGACGCTGCGAGCTAGCAACGGAGTCACCTAGTGCAG” the binding signal was 3630 fluorescence intensity (a.u.). For “GCTTGTCCTTTTCAATTAGACATGTTGACATGGCAGTAGGCGGAGTCACCTAGTGCAG”, the binding signal was 3520 fluorescence intensity (a.u.). “CAGAAACTAATGCGGCTGAGTTCGTTTCTCGCCTTTCCCACGGAGTCACCTAGTGCAG” was tested, and the binding signal was 3340 fluorescence intensity (a.u.). In the case of “GCACAACTGGGCATGACTGACATTATTGTCGAAATGGATGCGGAGTCACCTAGTGCAG”, the binding signal is reported as 3570 fluorescence intensity (a.u.). With “CTCATGTGACATGCCACATAGGAGTTGACTCATTTTCTTTCGGAGTCACCTAGTGCAG” the binding signal was 6680 fluorescence intensity (a.u.). For “GATCCTGAGGTAAGTGACGAGTCAATGAACTGTGCACAGGCGGAGTCACCTAGTGCAG”, the binding signal was 3280 fluorescence intensity (a.u.). For “GCTGCATGCAGTTCATCGTGTCCTGCCGTGGCTACAGCGCCGGAGTCACCTAGTGCAG”, the binding signal was 3180 fluorescence intensity (a.u.). In the case of “CGCCGATCTTCTCCGAGGCTGACTCGGTCGATCCAGAGGTCGGAGTCACCTAGTGCAG”, the binding signal is reported as 3410 fluorescence intensity (a.u.). For “GCCGCCGCCGTGGCCGCCGAGGCCATGCTGTTCGGCGTCGCGGAGTCACCTAGTGCAG”, the binding signal was 3470 fluorescence intensity (a.u.). With “CCTTCCACTTTTGGGCCGGCCCAGGTTTGCCACGGCCCGGCGGAGTCACCTAGTGCAG” the binding signal was 3160 fluorescence intensity (a.u.). With “CTTTCTTTGAGCCCAGCTGACGTCTCCCGCAACACCGCATCGGAGTCACCTAGTGCAG” the binding signal was 4770 fluorescence intensity (a.u.).
